In patent publication US5698516A (Ferring B.V., priority 1993, dated 1997):
Some peptides are written in HELM: one residue between dots, names in brackets for other building blocks, links after the first $. The same purity stands for every peptide and may come from a single statement.

Experiment: general procedure: Fmoc solid-phase peptide synthesis; TentaGel-S RAM-resin (1 g, 0.2 mmol/g; RAPP Polymere S 30 023); TBTU (cyclization)
Conditions: whole synthesis, scale of the general procedure 1 g resin

Final HPLC purity, 99%:
PEPTIDE1{[CH2CH2CH2CO].[D-Thi].M.V.N.C.[Hyp].[dR].G.[am]}$PEPTIDE1,PEPTIDE1,1:R3-6:R3$$$V2.0
PEPTIDE1{[CH2CH2CH2CO].[D-Thi].[Thi].[CaMeAbu].N.C.[Hyp].[dR].G.[am]}$PEPTIDE1,PEPTIDE1,1:R3-6:R3$$$V2.0
PEPTIDE1{[CH2CH2CH2CO].[dF].[Thi].V.N.C.[Hyp].[dR].G.[am]}$PEPTIDE1,PEPTIDE1,1:R3-6:R3$$$V2.0
PEPTIDE1{[CH2CH2CH2CO].[dF].[Thi].[CaMeAbu].N.C.[Hyp].[dR].G.[am]}$PEPTIDE1,PEPTIDE1,1:R3-6:R3$$$V2.0
PEPTIDE1{[CH2CH2CH2CO].[dY].F.V.N.C.P.[dR].G.[am]}$PEPTIDE1,PEPTIDE1,1:R3-6:R3$$$V2.0
PEPTIDE1{[CH2CH2CH2CO].[dY].[Thi].[CaMeAbu].N.C.[Hyp].[dR].G.[am]}$PEPTIDE1,PEPTIDE1,1:R3-6:R3$$$V2.0
